Results from the supplement of paper PMC10849652.
This is one part of the list.

Amino acid sequences for entries named in this document (tags omitted). A change or cut given only in a name is not applied to a line headed by its entry.
UniProt Q8N3X1: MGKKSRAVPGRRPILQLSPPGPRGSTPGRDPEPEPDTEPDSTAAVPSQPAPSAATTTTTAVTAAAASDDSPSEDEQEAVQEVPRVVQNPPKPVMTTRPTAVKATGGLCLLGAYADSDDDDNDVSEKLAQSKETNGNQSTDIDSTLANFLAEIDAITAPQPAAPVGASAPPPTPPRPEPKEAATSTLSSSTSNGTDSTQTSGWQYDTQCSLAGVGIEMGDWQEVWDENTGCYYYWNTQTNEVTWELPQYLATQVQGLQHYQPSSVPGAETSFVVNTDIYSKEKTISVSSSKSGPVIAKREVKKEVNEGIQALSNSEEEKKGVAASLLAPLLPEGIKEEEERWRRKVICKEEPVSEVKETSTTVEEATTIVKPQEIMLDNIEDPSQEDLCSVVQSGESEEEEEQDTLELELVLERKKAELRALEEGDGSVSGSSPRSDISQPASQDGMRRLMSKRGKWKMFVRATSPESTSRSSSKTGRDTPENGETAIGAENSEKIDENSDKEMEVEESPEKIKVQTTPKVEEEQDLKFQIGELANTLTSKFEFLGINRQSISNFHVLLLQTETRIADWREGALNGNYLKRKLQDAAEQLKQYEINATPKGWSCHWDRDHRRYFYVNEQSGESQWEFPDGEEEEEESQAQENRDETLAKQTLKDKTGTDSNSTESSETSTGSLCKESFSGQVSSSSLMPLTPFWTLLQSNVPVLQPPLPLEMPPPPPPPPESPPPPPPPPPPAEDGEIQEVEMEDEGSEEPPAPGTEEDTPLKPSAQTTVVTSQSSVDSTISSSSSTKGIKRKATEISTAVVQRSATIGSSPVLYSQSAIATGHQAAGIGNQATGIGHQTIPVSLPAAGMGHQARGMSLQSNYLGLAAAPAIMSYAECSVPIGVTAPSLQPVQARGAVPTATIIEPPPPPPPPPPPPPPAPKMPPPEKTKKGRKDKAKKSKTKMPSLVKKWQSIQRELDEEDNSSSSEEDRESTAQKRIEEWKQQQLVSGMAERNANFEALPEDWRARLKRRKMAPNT
UniProt O14526: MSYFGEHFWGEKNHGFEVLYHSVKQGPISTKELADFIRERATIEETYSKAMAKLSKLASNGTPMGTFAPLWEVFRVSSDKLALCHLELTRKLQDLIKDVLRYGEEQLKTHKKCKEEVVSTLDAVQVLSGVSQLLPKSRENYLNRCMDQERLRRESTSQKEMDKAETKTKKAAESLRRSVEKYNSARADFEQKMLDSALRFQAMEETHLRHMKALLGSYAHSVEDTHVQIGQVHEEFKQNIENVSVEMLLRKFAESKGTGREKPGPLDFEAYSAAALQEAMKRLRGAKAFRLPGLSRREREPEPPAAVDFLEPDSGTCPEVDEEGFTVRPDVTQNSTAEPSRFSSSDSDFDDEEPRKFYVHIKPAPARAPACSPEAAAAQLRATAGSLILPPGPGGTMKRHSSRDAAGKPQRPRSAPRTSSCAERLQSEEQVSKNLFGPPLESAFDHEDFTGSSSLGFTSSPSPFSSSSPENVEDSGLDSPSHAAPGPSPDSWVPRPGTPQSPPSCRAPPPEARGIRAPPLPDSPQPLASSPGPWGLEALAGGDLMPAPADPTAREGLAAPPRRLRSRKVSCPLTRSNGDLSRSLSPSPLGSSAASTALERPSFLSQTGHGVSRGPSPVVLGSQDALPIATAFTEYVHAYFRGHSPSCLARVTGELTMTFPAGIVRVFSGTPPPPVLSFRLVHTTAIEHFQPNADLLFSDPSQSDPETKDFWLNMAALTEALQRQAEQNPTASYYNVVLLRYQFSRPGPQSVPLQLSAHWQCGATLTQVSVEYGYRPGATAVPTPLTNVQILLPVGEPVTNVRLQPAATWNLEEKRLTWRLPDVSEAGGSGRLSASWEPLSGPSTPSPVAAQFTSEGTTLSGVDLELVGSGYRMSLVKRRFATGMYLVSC
UniProt Q9UK22: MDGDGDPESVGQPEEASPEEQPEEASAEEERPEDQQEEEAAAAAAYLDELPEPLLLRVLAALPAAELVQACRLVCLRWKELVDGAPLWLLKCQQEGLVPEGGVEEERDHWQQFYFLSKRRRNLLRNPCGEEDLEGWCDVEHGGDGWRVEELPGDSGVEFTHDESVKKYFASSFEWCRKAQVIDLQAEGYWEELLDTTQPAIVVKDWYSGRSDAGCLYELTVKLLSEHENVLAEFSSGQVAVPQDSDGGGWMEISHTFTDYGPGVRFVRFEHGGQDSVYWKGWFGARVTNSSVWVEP
UniProt Q96CP2: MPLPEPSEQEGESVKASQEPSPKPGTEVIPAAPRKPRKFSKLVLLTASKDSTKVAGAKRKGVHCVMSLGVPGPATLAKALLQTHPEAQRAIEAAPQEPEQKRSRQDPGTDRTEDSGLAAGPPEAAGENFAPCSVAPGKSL
UniProt Q9Y285: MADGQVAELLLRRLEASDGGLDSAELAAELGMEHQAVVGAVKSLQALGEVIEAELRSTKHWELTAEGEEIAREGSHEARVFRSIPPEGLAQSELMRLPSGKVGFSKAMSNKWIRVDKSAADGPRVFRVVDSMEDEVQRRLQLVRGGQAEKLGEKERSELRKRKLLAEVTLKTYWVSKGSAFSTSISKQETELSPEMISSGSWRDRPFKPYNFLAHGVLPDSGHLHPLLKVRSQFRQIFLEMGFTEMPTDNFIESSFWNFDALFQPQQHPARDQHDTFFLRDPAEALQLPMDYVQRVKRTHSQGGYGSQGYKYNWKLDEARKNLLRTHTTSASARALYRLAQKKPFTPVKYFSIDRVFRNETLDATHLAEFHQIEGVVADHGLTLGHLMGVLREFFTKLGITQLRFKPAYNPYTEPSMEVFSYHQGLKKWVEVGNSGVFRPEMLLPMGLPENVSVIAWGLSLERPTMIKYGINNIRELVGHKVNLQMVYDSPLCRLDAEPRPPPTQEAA
UniProt P26885: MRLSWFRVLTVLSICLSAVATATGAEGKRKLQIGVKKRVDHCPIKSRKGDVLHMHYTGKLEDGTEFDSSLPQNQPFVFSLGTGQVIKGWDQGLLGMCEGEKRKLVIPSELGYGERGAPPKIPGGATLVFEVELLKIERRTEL
UniProt P10109: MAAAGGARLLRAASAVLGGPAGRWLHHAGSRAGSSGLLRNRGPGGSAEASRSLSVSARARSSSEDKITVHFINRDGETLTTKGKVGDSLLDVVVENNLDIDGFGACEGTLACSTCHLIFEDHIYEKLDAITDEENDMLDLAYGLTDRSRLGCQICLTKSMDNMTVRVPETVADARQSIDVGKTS
UniProt Q9NVK5: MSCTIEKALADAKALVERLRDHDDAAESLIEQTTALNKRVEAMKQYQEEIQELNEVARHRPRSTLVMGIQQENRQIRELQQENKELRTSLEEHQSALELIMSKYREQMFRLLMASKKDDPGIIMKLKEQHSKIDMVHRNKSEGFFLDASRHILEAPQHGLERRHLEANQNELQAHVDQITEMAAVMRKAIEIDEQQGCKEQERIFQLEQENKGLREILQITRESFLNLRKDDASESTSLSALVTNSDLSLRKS
UniProt Q9UKB1: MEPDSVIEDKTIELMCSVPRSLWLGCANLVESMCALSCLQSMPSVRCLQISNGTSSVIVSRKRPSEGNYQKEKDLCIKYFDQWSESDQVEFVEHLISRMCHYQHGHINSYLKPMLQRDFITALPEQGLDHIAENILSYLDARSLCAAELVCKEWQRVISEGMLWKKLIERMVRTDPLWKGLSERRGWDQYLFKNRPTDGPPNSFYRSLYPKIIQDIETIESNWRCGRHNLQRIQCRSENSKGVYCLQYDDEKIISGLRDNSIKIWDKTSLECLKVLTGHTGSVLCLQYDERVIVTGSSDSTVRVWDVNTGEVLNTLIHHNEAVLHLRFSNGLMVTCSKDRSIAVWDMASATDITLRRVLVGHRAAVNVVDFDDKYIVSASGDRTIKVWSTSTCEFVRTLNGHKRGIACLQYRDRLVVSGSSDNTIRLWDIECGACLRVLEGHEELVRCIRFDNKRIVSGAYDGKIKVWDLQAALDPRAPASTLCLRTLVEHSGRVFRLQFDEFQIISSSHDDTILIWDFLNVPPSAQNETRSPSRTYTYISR
UniProt Q9NVI1: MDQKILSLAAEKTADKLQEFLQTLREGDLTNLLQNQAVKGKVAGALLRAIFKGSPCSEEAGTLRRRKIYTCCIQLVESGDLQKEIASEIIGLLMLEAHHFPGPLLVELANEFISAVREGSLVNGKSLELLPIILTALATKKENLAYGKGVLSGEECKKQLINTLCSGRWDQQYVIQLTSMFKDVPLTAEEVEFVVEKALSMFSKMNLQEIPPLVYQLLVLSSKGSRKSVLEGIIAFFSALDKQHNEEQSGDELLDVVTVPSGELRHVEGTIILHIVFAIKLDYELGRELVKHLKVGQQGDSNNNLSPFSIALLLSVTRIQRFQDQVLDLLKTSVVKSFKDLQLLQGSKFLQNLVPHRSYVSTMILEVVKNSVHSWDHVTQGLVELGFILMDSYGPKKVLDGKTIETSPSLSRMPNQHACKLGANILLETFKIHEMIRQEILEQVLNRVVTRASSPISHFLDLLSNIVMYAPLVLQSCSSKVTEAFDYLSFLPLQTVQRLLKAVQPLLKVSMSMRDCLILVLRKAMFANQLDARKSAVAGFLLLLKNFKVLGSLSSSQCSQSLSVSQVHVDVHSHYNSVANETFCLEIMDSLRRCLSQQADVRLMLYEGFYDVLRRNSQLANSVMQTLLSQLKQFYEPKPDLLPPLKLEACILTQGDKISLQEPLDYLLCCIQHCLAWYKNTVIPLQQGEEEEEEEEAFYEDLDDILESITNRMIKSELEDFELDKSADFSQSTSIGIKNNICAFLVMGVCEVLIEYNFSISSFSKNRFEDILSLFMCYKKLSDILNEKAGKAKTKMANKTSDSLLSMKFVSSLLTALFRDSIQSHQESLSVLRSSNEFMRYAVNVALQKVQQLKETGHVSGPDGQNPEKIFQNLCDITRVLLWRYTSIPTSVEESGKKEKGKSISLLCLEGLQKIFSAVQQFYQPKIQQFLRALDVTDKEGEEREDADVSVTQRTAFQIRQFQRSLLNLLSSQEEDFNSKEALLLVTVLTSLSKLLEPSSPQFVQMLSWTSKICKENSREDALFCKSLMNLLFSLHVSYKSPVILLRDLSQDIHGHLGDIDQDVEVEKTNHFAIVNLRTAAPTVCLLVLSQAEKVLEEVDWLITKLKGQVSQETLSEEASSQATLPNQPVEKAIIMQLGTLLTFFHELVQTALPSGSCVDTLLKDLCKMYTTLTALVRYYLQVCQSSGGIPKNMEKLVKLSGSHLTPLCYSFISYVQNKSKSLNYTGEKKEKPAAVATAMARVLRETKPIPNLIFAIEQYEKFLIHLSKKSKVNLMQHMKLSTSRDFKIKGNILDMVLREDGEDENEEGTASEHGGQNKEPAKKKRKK
UniProt Q13643: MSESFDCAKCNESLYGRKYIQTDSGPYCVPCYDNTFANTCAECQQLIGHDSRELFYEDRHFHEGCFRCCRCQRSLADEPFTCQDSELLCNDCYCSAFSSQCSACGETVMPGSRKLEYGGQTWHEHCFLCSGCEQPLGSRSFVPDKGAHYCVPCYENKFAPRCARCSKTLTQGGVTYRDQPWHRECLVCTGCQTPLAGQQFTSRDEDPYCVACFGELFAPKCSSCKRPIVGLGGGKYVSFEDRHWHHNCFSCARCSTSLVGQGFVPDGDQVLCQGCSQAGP
UniProt Q96C11: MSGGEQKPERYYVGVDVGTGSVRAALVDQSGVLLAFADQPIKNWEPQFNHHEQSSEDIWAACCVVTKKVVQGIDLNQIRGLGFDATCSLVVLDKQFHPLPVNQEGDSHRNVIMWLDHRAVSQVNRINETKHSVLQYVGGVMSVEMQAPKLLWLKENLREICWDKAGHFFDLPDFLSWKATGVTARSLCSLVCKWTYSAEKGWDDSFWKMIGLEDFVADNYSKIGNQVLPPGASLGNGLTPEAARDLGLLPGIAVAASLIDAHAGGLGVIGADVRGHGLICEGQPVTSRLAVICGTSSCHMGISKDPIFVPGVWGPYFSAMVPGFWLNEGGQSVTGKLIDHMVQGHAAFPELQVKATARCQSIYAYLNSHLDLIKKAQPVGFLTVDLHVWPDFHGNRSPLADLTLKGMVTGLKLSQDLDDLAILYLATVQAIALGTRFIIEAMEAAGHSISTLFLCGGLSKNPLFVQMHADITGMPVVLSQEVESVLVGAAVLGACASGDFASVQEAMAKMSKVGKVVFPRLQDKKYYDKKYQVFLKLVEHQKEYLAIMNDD
UniProt Q9UBU6: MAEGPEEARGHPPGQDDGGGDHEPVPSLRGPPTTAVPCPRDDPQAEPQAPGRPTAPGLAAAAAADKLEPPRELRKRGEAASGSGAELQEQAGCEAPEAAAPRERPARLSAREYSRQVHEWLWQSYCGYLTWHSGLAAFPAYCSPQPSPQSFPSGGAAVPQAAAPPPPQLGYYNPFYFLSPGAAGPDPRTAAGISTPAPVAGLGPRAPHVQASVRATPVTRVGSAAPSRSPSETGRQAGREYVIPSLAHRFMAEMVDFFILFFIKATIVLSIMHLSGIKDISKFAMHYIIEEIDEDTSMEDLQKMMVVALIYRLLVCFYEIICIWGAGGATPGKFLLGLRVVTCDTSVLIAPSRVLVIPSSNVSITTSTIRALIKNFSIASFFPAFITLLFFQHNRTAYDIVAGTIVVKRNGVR

Compound: Cc1cc(Nc2cc(CN3CCOCC3)c3nc(C)c(Cc4ccc(Cl)cc4F)n3n2)n[nH]1 [gandotinib]
Experiment: log2 fold change, soluble protein after heating vs DMSO (PISA); higher = thermal stabilisation; K562 lysate, 10 uM; active = over 0.2 and 3.5 SD of the protein, either way, in both replicates (recomputed)
Procedure, shortened: (§1)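 Pellets of K562 cells were dounce-homogenised in PBS pH 7.4 with 1 mM MgCl2, and the crude extract was held at 1 mg/mL protein for a 30 min treatment with 10 μM compound. Aliquots were heated for 3 min over 48°C-58°C and pooled before NP-40 was added to 0.5% at 4°C. The supernatant from 21,000xg for 90 min was quantified by TMTpro 16plex LC-MS/MS with channel sums equalised. Values are reported from duplicates as log-two fold change in thermal stability relative to solvent controls.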

log2 fold change, inactive:
FDFT1 (UniProt P37268) 0.207, FMR1 (UniProt Q06787) 0.091, FNBP4 isoform 2 (UniProt Q8N3X1) 0.05, FLII (UniProt Q13045) -0.046, FEN1 (UniProt P39748) -0.062, FCHO1 (UniProt O14526) -0.027, FBXL12 (UniProt Q9NXK8) -0.013, FBXO2 (UniProt Q9UK22) -0.017, FLYWCH2 (UniProt Q96CP2) 0.05, FNIP1 isoform 3 (UniProt Q8TF40) -0.047

Compound: Cc1cc(Nc2cc(N3CCN(C)CC3)nc(Sc3ccc(NC(=O)C4CC4)cc3)n2)n[nH]1 [tozasertib]
Experiment: as above
Procedure, shortened: as §1

log2 fold change, inactive:
FN3K (UniProt Q9H479) -0.017, FBXL8 (UniProt Q96CD0) 0.009, FARSA (UniProt Q9Y285) -0.063, FKBP2 (UniProt P26885) -0.008, FDX1 (UniProt P10109) -0.01, FGFR1OP2 (UniProt Q9NVK5) -0.039, FKBP7 (UniProt Q9Y680) 0.058, FGD6 (UniProt Q6ZV73) 0, FECH isoform 2 (UniProt P22830) 0, FBXW11 (UniProt Q9UKB1) 0.04, FANCI (UniProt Q9NVI1) 0.002, FBXO7 (UniProt Q9Y3I1) -0.06, FHL3 (UniProt Q13643) 0.033, FDX2 (UniProt Q6P4F2) -0.15, FNTB (UniProt P49356) -0.069, FBXO5 (UniProt Q9UKT4) 0.047, FMNL1 isoform 3 (UniProt O95466) -0.051, FLOT1 (UniProt O75955) -0.011, FGGY isoform 3 (UniProt Q96C11) 0.119, FEM1B (UniProt Q9UK73) -0.038, FNTA (UniProt P49354) -0.024, FBXO3 (UniProt Q9UK99) -0.068, FAM8A1 (UniProt Q9UBU6) -0.09, FDFT1 (UniProt P37268) -0.004, FMR1 (UniProt Q06787) -0.039, FNBP4 isoform 2 (UniProt Q8N3X1) -0.023, FLII (UniProt Q13045) 0.043, FEN1 (UniProt P39748) -0.032, FCHO1 (UniProt O14526) 0.027, FBXL12 (UniProt Q9NXK8) -0.026, FBXO2 (UniProt Q9UK22) -0.11, FLYWCH2 (UniProt Q96CP2) -0.018, FNIP1 isoform 3 (UniProt Q8TF40) -0.027
